These are yes or no findings as the source states them, for the method shown. In cells and extracts the contact can be indirect. Here binding means that the protein was enriched with, or labelled near, the bait; the list need not be complete.
Molecular target: T1, prolargin (PRELP), recombinant human (human) (UniProt P51888)
T1 sequence: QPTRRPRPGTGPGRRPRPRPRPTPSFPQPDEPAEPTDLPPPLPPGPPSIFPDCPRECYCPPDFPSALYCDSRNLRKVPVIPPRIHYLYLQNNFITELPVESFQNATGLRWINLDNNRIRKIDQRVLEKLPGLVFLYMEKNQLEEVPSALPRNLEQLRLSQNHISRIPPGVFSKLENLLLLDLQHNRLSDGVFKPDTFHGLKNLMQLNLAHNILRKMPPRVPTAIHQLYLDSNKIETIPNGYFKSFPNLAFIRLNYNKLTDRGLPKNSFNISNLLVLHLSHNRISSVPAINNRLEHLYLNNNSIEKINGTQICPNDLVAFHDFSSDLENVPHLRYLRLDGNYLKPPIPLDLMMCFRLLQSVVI
Test: affinity purification with mass spectrometry

The chains behind the UniProt entries cited, without tags or fusion partners. Where a name states a change or a piece, a line headed by the entry shows the natural chain unless it says otherwise.
UniProt P03956: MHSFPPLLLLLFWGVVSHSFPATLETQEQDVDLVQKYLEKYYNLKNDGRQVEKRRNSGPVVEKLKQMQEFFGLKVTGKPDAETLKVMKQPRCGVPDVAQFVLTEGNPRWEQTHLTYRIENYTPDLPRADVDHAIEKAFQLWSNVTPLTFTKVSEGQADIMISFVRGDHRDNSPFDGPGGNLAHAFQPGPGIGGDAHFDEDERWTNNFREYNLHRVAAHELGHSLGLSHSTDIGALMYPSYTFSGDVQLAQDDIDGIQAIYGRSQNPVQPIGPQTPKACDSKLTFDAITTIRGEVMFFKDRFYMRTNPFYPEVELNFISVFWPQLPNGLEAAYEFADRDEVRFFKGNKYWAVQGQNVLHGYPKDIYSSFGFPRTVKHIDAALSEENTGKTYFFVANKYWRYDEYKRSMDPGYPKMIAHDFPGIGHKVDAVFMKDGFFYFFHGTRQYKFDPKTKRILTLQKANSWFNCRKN
UniProt P08254: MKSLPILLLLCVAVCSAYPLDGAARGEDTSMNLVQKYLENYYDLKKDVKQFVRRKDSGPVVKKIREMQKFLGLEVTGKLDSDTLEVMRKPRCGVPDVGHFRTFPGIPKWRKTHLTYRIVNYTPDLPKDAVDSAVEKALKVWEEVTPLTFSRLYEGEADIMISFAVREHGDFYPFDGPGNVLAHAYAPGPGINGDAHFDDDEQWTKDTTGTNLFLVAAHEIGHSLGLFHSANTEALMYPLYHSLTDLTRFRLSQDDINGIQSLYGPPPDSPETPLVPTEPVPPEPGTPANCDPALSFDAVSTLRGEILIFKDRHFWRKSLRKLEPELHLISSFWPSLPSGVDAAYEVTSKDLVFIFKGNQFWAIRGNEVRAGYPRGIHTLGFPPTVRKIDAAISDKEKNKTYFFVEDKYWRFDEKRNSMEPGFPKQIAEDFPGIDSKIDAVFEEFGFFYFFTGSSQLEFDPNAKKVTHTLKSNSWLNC

Substance | binding
matrix metalloproteinase-1 (MMP1) (from UniProt P03956) (enzyme) | binds
matrix metalloproteinase-3 (MMP3) (from UniProt P08254) (enzyme) | binds

— paper doi:10.1101/2021.01.04.425182
